The text below walks through data of PubChem BioAssay AID2685 (National Center for Advancing Translational Sciences (NCATS), 2010).

The other results are listed elsewhere or left out. The main result of the screen is listed elsewhere. These columns were measured beside it and carry no call. Compounds called inactive in the main read-out are mostly missing here. The note in brackets gives the kind of curve behind each potency; many fits are weak.

A short description of this assay: qHTS Assay for Lipid Storage Modulators in Drosophila S3 Cells.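 As to cell number change: cells counted by Cell Tracker Red CMTPX staining in the red channel.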 The conditions noted are these: BODIPY lipid droplet fluorescence, 18-24 h; for cell number change: measured here: cell count max response, cells fed with added oleic acid. The method in brief: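 Laser-scanning cytometry quantifies lipid droplet accumulation (500–530 nm total intensity; droplet/cell object ratio) in oleic acid-fed (400 uM added) Drosophila S3 cells treated with a concentration series. 20 uM Triacsin C defined 100% inhibition.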

Where [1] appears, read: measured here: lipid fluorescence (Fed channel) AC50, cells fed with added oleic acid.
[2] abbreviates: measured here: cell number channel AC50, cells fed with added oleic acid.

With `CCOC(=O)[C@H]1[C@H]2COc3cc(OC)ccc3[C@@H]2N2C(=O)N(c3ccc(Cl)cc3)C(=O)[C@@]12C`, the cell number change is 28.5%. For the same compound, the AC50 under setting [1] is 29.1 µM [rising, single point].

In the case of `CCCN(CCC)c1nc2ccccc2nc1C(C#N)C(=O)OCCOC` (stereo unspecified), the cell number change was 4.34%. Further, under setting [2], the AC50 is 0.651 µM [rising, single point]. Besides, the AC50 under setting [1] was 1.3 µM [rising, full curve].

For `CN(C)/C(=N\S(=O)(=O)c1ccccc1)c1ccc(F)cc1`, the cell number change was found to be 12.2%. Also, the AC50 under setting [1] was 0.13 µM [rising, full curve, poor fit].

`COc1cc(C(=O)NCc2nnc(SCC(=O)Nc3cccc(C(F)(F)F)c3)o2)cc(OC)c1OC`: the AC50 under setting [1] is 1.3 µM [falling, partial curve].

With `Cc1cc([N+](=O)[O-])nn1CCCC(=O)Nc1sc2c(c1C(N)=O)CCC(C)C2` (stereo unspecified), the cell number change was -18.2%.

Take `Cc1ccc2nc(SCCC#N)nc(C)c2c1`: the cell number change came to 12.2%.

With `CC(C)Cn1c(N)c(C(=O)COC(=O)c2cc(-c3ccccc3)nc3ccccc23)c(=O)n(C)c1=O`, the cell number change worked out at 15.6%. Also, the AC50 under setting [1] was 1.84 µM [rising, partial curve].

For `O=C(COc1ncnc2sccc12)Nc1ccc2c(c1)OCCO2`, the cell number change came out at 29.6%. Further, under setting [1], the AC50 is 7.31 µM [rising, partial curve].

Consider `N#CCC(=O)Nc1ccc(C(=O)OCC(=O)NC(=O)Cc2ccccc2)cc1`, for which the cell number change is 9%.

With `C/C(CC(=O)Nc1cccc(Cl)c1)=N\NC(=O)Cc1ccc(Cl)cc1`, the cell number change was -8.97%. Moreover, the AC50 under setting [1] is 1.84 µM [rising, partial curve].

For `[O-][N+]1=C2CCC/C(=N\O)C2=NC12CCCCC2`, the cell number change was 14.3%.

In the case of `O=C1C=C(c2ccccc2)CC(c2cccs2)C1n1cnc([N+](=O)[O-])c1` (stereo unspecified), the cell number change was -7.67%. Besides, the half-maximal activity concentration (AC50) under setting [2] is 0.651 µM [falling, single point]. For the same compound, the AC50 under setting [1] was 1.3 µM [falling, full curve].

For the compound `CCOC(=O)c1ccc2c(c1)N(Cc1ccccc1C)C(=O)c1ccccc1S2=O` (stereo unspecified), the cell number change is -29.7%.

In the case of `COc1ccc(NC(=O)CSc2n[nH]c(=O)n2Cc2ccccc2)cc1Cl`, the cell number change was 2.94%. Moreover, the AC50 under setting [1] was 6.51 µM [rising, partial curve].

As to `CN(C)CCCN1C(=O)C(=O)/C(=C(/O)c2ccncc2)C1c1cccc(Br)c1` (stereo unspecified), the cell number change worked out at 28.8%. The half-maximal activity concentration (AC50) under setting [2] was 4.11 µM [falling, partial curve]. The AC50 under setting [1] is 3.66 µM [falling, full curve].

Turning to `CC(=O)c1cc(F)c(N2CCN(C(=O)Cc3ccccc3)CC2)cc1C`, under setting [2], the AC50 was 3.66 µM [rising, partial curve].

Take `CSCC(=O)N1CCCC(CNC(=O)c2ccccc2Cl)C1` (stereo unspecified): the cell number change is 9.43%.

As for `COc1ccccc1NS(=O)(=O)c1cc(NC(=O)/C=C/c2cccs2)ccc1N1CCOCC1`, the cell number change was 36.4%. In addition, the concentration at half-maximal activity (AC50) under setting [2] is 4.61 µM [rising, single point]. For the same compound, the half-maximal activity concentration (AC50) under setting [1] is 2.06 µM [rising, partial curve, poor fit].

On to `COc1ccc(C2C(C(=O)c3ccc(C)o3)=C(O)C(=O)N2Cc2ccco2)cc1OC` (stereo unspecified), for which the cell number change is -11.6%. Moreover, under setting [1], the AC50 is 3.26 µM [falling, single point].

In the case of `CC(C)C[C@H](N)c1nnc(SCc2ccc(Cl)cc2)o1`, the cell number change turned out to be 22.6%. In addition, under setting [2], the AC50 is 1.84 µM [rising, partial curve, poor fit].

As for `O=C(Nc1ccc(S(=O)(=O)N2CCOCC2)cc1)c1c(F)cccc1F`, the cell number change was -3.33%. In addition, the AC50 under setting [1] was 0.164 µM [rising, full curve].

As for `COc1ccc(CCC(=O)N2CCCC(Nc3ccccc3)C2)cc1OC` (stereo unspecified), the cell number change came out at 33%. Further, the AC50 under setting [1] is 1.03 µM [rising, full curve].

As to `Cn1c(Cl)cnc1C(O)c1ccccc1` (stereo unspecified), the cell number change was -35.6%. Besides, the AC50 under setting [2] is 0.146 µM [falling, full curve]. Also, under setting [1], the AC50 was 2.06 µM [falling, full curve].

With `CC1CN(S(=O)(=O)c2cccc(C(=O)NCC3COc4ccccc4O3)c2)CC(C)O1` (stereo unspecified), the cell number change is -41.2%. Also, the concentration at half-maximal activity (AC50) under setting [2] was 13 µM [falling, partial curve]. In addition, the AC50 under setting [1] is 32.6 µM [falling, single point].

As to `O=C(NC12CC3CC(CC(C3)C1)C2)N1CCN(c2nc(-c3ccccc3)cs2)CC1`, the cell number change is -18.7%. For the same compound, the AC50 under setting [1] is 25.9 µM [falling, single point].

As to `Cc1ccc(NC(=O)Cc2nnc(SCC(=O)NC3CCCC3)n2C)cc1C`, the cell number change stood at 17.9%. Also, the concentration at half-maximal activity (AC50) under setting [2] is 0.461 µM [rising, partial curve, poor fit]. The AC50 under setting [1] is 0.116 µM [falling, full curve, poor fit].

For `Cc1ccc(OCC(=O)NNC(=O)c2cc(C)[nH]n2)cc1`, the cell number change is 33.3%. Further, the AC50 under setting [2] was 20.6 µM [rising, single point].

Take `COc1ccccc1/C=C\C(=O)NCC(=O)N/N=C/c1ccc(O)cc1O`: the cell number change stood at 4.16%. Further, the AC50 under setting [2] is 2.91 µM [rising, single point]. The half-maximal activity concentration (AC50) under setting [1] was 6.51 µM [rising, single point].

Consider `CC(C)(C)OC(=O)N1Cc2ccccc2C[C@H]1C(=O)NCC(=O)NC1CCCC1`, for which the cell number change came to 22.6%. In addition, under setting [1], the half-maximal activity concentration (AC50) was 3.26 µM [rising, single point].

`CC(C)c1ccc(OCc2cccc(C(=O)N/N=C/c3cccnc3)c2)cc1`: the half-maximal activity concentration (AC50) under setting [1] was 6.51 µM [rising, single point].

With `COc1ccc(CC(=O)N(Cc2ccccc2)c2ccc(C)cc2)cc1S(=O)(=O)N1CCOCC1`, the cell number change turned out to be 45.5%.

Take `O=C(COC(=O)C1CC(O)CN1S(=O)(=O)c1ccccc1[N+](=O)[O-])c1ccc[nH]1` (stereo unspecified): the cell number change was -30.6%. Besides, the AC50 under setting [2] is 0.231 µM [falling, full curve, poor fit]. Further, the AC50 under setting [1] was 2.31 µM [falling, partial curve, poor fit].

With `O=C(NCCc1ccncc1)Nc1ccc(Cl)c(Cl)c1`, the cell number change was 27%.

On to `CC1(C)CC(=O)C2=C(C1)OC(c1ccncc1)C(C#N)=C2N` (stereo unspecified), for which the cell number change is -3.86%. Moreover, the AC50 under setting [1] was 5.8 µM [rising, partial curve].

`O=C(O)c1ccccc1-c1noc(-c2ccccc2F)n1`: the cell number change turned out to be 45.5%. The AC50 under setting [2] is 16.4 µM [rising, partial curve, poor fit]. In addition, under setting [1], the concentration at half-maximal activity (AC50) was 14.6 µM [rising, partial curve].

`Cc1ccc2nc(NCCc3ccccc3)c3nncn3c2c1`: the cell number change was 9.72%. Also, the AC50 under setting [1] was 0.58 µM [falling, single point].

Regarding `Cc1ccc2nc(N(CCCN(C)C)C(=O)c3cc(-c4cccs4)nc4ccccc34)sc2c1`, the cell number change is -45%. For the same compound, the concentration at half-maximal activity (AC50) under setting [2] is 14.6 µM [falling, partial curve, poor fit]. Under setting [1], the AC50 is 29.1 µM [falling, single point].

`COC(=O)[C@@H]1C[C@H]2CC[C@H](O)C[C@H]2N1Cc1ccc(C)s1`: the cell number change is 30.4%. Also, under setting [1], the AC50 is 2.31 µM [rising, partial curve].

As to `Cn1c2ccccc2c(=O)c2c(=O)n(C3CCCCC3)c(-c3cccs3)nc21`, the cell number change stood at 24.8%.

As for `COc1ccc(-c2cc3c(=O)n(CC(=O)NCc4ccccc4F)ncn3n2)cc1`, the cell number change was 9.8%. For the same compound, the AC50 under setting [2] was 0.092 µM [rising, full curve, poor fit].

As for `N=c1c2c3c(sc2ncn1Cc1ccccc1)CCCC3`, the cell number change stood at 8.86%. Moreover, the AC50 under setting [1] is 4.11 µM [rising, partial curve, poor fit].

Consider `CCC(=O)Nc1ccc(NC(=S)Nc2ccccc2)cc1`, for which the cell number change is -17.8%. Besides, under setting [2], the AC50 is 5.8 µM [rising, single point]. The AC50 under setting [1] was 6.51 µM [rising, single point].

Consider `Cc1cccc(C(=O)NC2CCN(C(=O)Nc3ccccc3C)CC2)c1`, for which the cell number change is -83.4%. Also, under setting [2], the AC50 was 7.31 µM [falling, partial curve]. Also, the AC50 under setting [1] was 0.146 µM [falling, full curve, poor fit].

For the compound `Cc1ccc(-n2c(-c3ccco3)nc3c(cnn3-c3ccccc3C)c2=O)cc1`, the cell number change was found to be 2.81%. Besides, the AC50 under setting [1] was 1.46 µM [rising, partial curve].

Regarding `NC(=O)c1ccccc1OCC(=O)NS(=O)(=O)c1ccccc1`, under setting [2], the AC50 is 0.651 µM [falling, full curve, poor fit].

For `Cc1ccc2nc(NCCO)nc(-c3ccccc3)c2c1`, the cell number change was found to be 37.4%. Also, the AC50 under setting [2] was 8.2 µM [rising, partial curve]. For the same compound, the AC50 under setting [1] was 11.6 µM [rising, partial curve].

Take `COCCn1c(N)c(Sc2ccc([N+](=O)[O-])cc2)c(=O)[nH]c1=O`: the cell number change came to 16.4%.

Take `COc1ccc(CNC(=O)c2ccc3ccccc3n2)cc1`: the cell number change was 13.2%. The AC50 under setting [1] is 9.2 µM [rising, partial curve].

Consider `COCCN(C(=O)c1snc(C(N)=O)c1N)C(C(=O)NC1CCCCC1)c1cc(OC)c(OC)c(OC)c1` (stereo unspecified), for which the cell number change stood at 12.9%. Further, the AC50 under setting [1] is 6.51 µM [falling, single point].

For the compound `COc1cccc(CNc2ccc(S(N)(=O)=O)cc2)c1OCc1ccccc1F`, the cell number change was determined as 26%. Also, the AC50 under setting [1] was 16.4 µM [rising, single point].

Take `O=C1CC(C(=O)Nc2ccccc2)N=C(N2CCCCC2)N1` (stereo unspecified): the AC50 under setting [1] is 5.8 µM [falling, partial curve].

With `Cc1cc(Cl)ccc1C1=CC(=O)C[C@H](c2ccc(F)cc2)C1`, the cell number change is 14.3%. Besides, the concentration at half-maximal activity (AC50) under setting [1] is 0.731 µM [rising, full curve].

Regarding `COc1ccc(C(=O)NCCCN=C2NS(=O)(=O)c3ccccc32)cc1`, the cell number change was -27%. The AC50 under setting [1] was 23.1 µM [falling, single point].

Regarding `O=C(CNC(=O)c1ccc(Br)o1)NCC1CCCCC1`, the cell number change was 14.7%. For the same compound, the half-maximal activity concentration (AC50) under setting [1] was 0.116 µM [rising, full curve, poor fit].

Regarding `CCCCN1C(=O)/C(=C2/Sc3ccc(Cl)cc3N2CC)SC1=S`, the cell number change worked out at 14.6%. For the same compound, the AC50 under setting [1] is 29.1 µM [rising, partial curve, poor fit].

For the compound `CC(=O)N1C(=O)NC2=C(C(=O)CCC2)C1c1cccc([N+](=O)[O-])c1` (stereo unspecified), the cell number change was -11.3%. Moreover, the AC50 under setting [1] was 16.4 µM [falling, partial curve].

As to `O=C(CSc1nnc(-c2cccnc2)o1)N1CCCCC1`, the cell number change was determined as 11.7%.

For `CC(C)CN(CC(C)C)S(=O)(=O)N1CCC(C(=O)NC2CCCCCCC2)CC1`, the cell number change is 1.01%. The concentration at half-maximal activity (AC50) under setting [1] is 2.31 µM [rising, single point].

Turning to `COc1ccc(CN2C(=O)C(CC(C)C)Nc3ncnc(N4CCN(c5ccccn5)CC4)c32)cc1` (stereo unspecified), the cell number change was -15.6%. The AC50 under setting [1] is 23.1 µM [falling, single point].
